Measurements published in paper PMC5812214.
These are yes or no findings as the source states them, for the method shown. Binding seen in cells or lysates may run through a third protein. Some entries that bind do so weakly or less than the wild type.

Sequences of proteins named here, by UniProt entry; tags and fusion partners are left off.
UniProt Q00987: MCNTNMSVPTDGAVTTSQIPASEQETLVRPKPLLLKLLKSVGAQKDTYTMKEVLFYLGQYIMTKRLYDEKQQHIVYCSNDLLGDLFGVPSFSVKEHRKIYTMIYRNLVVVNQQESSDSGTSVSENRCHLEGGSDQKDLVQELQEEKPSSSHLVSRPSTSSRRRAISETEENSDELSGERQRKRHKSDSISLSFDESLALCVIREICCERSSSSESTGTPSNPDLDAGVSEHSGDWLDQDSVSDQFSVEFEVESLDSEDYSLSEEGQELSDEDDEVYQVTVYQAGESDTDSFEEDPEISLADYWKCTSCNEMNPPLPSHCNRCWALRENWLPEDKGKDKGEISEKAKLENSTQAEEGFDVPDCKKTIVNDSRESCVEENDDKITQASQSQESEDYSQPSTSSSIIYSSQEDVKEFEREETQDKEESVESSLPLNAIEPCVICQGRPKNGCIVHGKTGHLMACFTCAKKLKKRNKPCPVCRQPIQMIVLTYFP
UniProt P14649: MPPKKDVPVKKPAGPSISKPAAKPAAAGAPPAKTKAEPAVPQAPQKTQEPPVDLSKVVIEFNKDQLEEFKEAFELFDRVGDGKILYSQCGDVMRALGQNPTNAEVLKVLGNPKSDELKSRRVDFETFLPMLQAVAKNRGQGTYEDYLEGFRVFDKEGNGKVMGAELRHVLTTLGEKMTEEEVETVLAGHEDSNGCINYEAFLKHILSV

Key:
[1] = target: MDM2, endogenous (human (endogenous in Huh7)) (UniProt Q00987); test: co-IP; endogenous proteins; Huh7 lysate with anti-MDM2, anti-p53 or normal rabbit IgG at 4 °C overnight, Protein A/G PLUS-Agarose 1 h, eluted with 0.1 M glycine-HCl pH 2.2, immunoblot with antibody against MYL6B
[2] = target: myc3-MDM2 (pCMV-myc3-HDM2) (human) (UniProt Q00987); test: co-IP; lysate of Huh7 cells transfected with myc3-vector or myc3-MDM2, anti-myc agarose, immunoblot with antibody against MDM2 or MYL6B
3FLAG-MYL6B (human) = 3FLAG-MYL6B (human) (UniProt P14649); test: co-IP; lysate of Huh7 cells transfected with 3FLAG-vector or 3FLAG-MYL6B, anti-FLAG Agarose Affinity Gel, immunoblot with antibody against MYL6B, MDM2 or p53

Row | binding [1] | binding [2] | binding (3FLAG-MYL6B (human)) | Substance
1 | binds | binds |  | Myosin Light Chain 6B (MYL6B), endogenous (from UniProt P14649 1-208)
2 |  |  | binds | MDM2, endogenous (from UniProt Q00987 1-491) (enzyme)
